# Experimental data published in patent US20100261658A1, “PEPTIDE FOR ACTIVATING AQUAPORIN SYNTHESIS” (priority 2007, published 2010).
# Not every detail of the peptide structures is certain; ends, links or a residue may be inferred. Peptide text beside a SMILES is read from it.
# Columns and labels:
# Type in all cases: cell-based
# biopsies of human skin = test: Protective effect against induced cutaneous dehydration (tape stripping), ex vivo skin biopsies, H&E histology; conditions: 1% solution of a mother solution at 50 ppm, 24 hours, stratum corneum removed by tape stripping
# claudin-1 = test: Expression of claudin-1 by immunofluorescence on sections of human skin; conditions: 1% solution of a mother solution at 50 ppm applied topically, 24 hours; in particular upper layers of the epidermis
# keratin K10 = test: Expression of keratin K10 by immunofluorescence on sections of human skin; conditions: 1% solution of a mother solution at 50 ppm applied topically, 24 hours; in particular upper layers of the epidermis
smiles,measurement,setting,value
"C[C@H](NC(=O)[C@@H]1CCCN1C(=O)[C@@H](N)CC(N)=O)C(=O)N[C@@H](CCCNC(=N)N)C(N)=O [SEQ ID no 5, Asn-Pro-Ala-Arg-NH2] (H-NPAR-NH2)",appearance of the keratinocytes of the basal layer (regeneration),biopsies of human skin,regenerating effect
same,signs of cellular stress and preservation of cutaneous structures (H&E sections),biopsies of human skin; vs non-treated biopsies,distinct reduction to the signs of cellular stress and a better preservation of the cutaneous structures
same,claudin-1 immunofluorescence,claudin-1,stronger fluorescence
same,keratin K10 immunofluorescence,keratin K10,stronger fluorescence
